Laboratory results from paper PMC4701444 (PLoS ONE, 2016).
No constants are given. Whether binding was seen depends on the method and setting. Some binding calls cover weakened binding; strength is not graded here.

Legend:
[1] = molecular target: PfAMA1 (DI-DII of Plasmodium falciparum Apical Membrane Antigen 1, 3D7, residues 104-438) (Plasmodium falciparum) (UniProt Q7KQK5); assay: ITC; 25°C, MicroCal iTC200; cell: PfAMA1 or ΔDII-PfAMA1 (10 μM); syringe: PfRON2D3-TRX (110 μM), 17 injections of 2.2 μL; 20 mM Hepes pH 7.5, 150 mM NaCl; one binding site model; both purified
[2] = molecular target: PfAMA1 (DI-DII of Plasmodium falciparum Apical Membrane Antigen 1, 3D7, residues 104-438) (Plasmodium falciparum) (UniProt Q7KQK5); assay: fluorescence polarisation; anisotropy kinetics at 30°C; association: 10 nM labeled probe with 50, 100, 200 nM protein; dissociation: 10 nM preformed complex challenged with 2500 or 5000 nM unlabeled PfRON2sp1; global fit to a one-intermediate model; PBS pH 7.4, at least 0.1% BSA; both purified
[3] = molecular target: PfAMA1 (DI-DII of Plasmodium falciparum Apical Membrane Antigen 1, 3D7, residues 104-438) (Plasmodium falciparum) (UniProt Q7KQK5); assay: fluorescence polarisation; anisotropy kinetics at 25°C; association: 10 nM labeled probe with 50, 100, 200 nM protein; dissociation: 10 nM preformed complex challenged with 2500 or 5000 nM unlabeled PfRON2sp1; global fit to a one-intermediate model; PBS pH 7.4, at least 0.1% BSA; both purified
[4] = molecular target: PfAMA1 (DI-DII of Plasmodium falciparum Apical Membrane Antigen 1, 3D7, residues 104-438) (Plasmodium falciparum) (UniProt Q7KQK5); assay: fluorescence polarisation; anisotropy kinetics at 20°C; association: 10 nM labeled probe with 50, 100, 200 nM protein; dissociation: 10 nM preformed complex challenged with 2500 or 5000 nM unlabeled PfRON2sp1; global fit to a one-intermediate model; PBS pH 7.4, at least 0.1% BSA; both purified

Molecule | binding [1] | binding [2] | binding [3] | binding [4]
TRX (thioredoxin alone, negative control) (from UniProt P0AA25 1-109) | no binding |  |  | 
DITQQAKDIGAGPVASCFTTRMSPPQQICLNSVVNTALS (disulfide cyclized at the two cysteine residues) [PfRON2sp1 (39 aa) [2021-2059], unlabeled peptide] |  | binds | binds | binds
